Results deposited as PubChem BioAssay AID1508597 (Cure First, 2020)

- Purpose: 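Knock-downs altering ovarian cancer cell survival with or without PARP inhibitor rucaparib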 (primary screen)
- Cells: human ovarian carcinoma lines grown from tumours: OCI-P5x (papillary serous) and OCI-C5x (clear cell)
- Reagents: siRNA pool against human genes, 1.25 pmol siRNA per well
- Time to read-out: 72 h or 96 h, depending on the cell culture
- Conditions: rucaparib 20 µM (about IC30) or vehicle, present until read-out
- Rucaparib or vehicle: Rucaparib
- Cell line: OCI-C5x (clear cell)
- Measurement: 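ATP luminescence measured at 72 or 96 h according to the culture, then normalised and expressed as percent viability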
- Reading the numbers: viability, normalised: higher = more viable cells remaining
- Hit rule: 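Active when normalised viability falls below 80 percent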
- Meaning of the calls: active = viability under 80%; inactive = viability 80% or more
Shown is an unselected part of the about 2,100 reagents, in one setting of the screen. 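Calls flag viability under 80% in either arm, not effects specific to rucaparib; the reference for percent is not stated.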 A reagent listed more than once was tested more than once; the source does not tell the runs apart. No sequences are given here. The record does not give: the 100% reference.

Gene	technical replicate	viability, normalised (%)	Call
BMPR1A	1	56.2	active
BMPR1A	1	52.1	active
BMPR1A	2	50.5	active
BMPR1A	2	70	active
BMPR1A	3	55.2	active
BMPR1A	3	57	active
PAK3	1	68.6	active
PAK3	2	52.8	active
PAK3	3	62	active
FANCG	1	75.3	active
FANCG	2	80.4	inactive
FANCG	3	72.9	active
BRD10	1	23.3	active
BRD10	2	24.6	active
BRD10	3	24.3	active
BMP2K	1	42.1	active
BMP2K	2	60.6	active
BMP2K	3	45.8	active
APPL1	1	78.8	active
APPL1	2	42.1	active
APPL1	3	41.4	active
BCL10	1	40.2	active
BCL10	2	46.9	active
BCL10	3	41.1	active
PDE3A	1	69.1	active
PDE3A	2	41.8	active
PDE3A	3	62.1	active

5 entries from above in another layout:
{"Gene": "APPL1", "technical replicate": "3", "viability, normalised (%)": 41.4, "Call": "active"}
{"Gene": "BCL10", "technical replicate": "1", "viability, normalised (%)": 40.2, "Call": "active"}
{"Gene": "BCL10", "technical replicate": "2", "viability, normalised (%)": 46.9, "Call": "active"}
{"Gene": "BCL10", "technical replicate": "3", "viability, normalised (%)": 41.1, "Call": "active"}
{"Gene": "PDE3A", "technical replicate": "1", "viability, normalised (%)": 69.1, "Call": "active"}

More records:
Gene	technical replicate	viability, normalised (%)	Call
RPH3A	1	47.2	active
RPH3A	2	35.2	active
RPH3A	3	43.1	active
GALK2	1	32	active
GALK2	2	28.5	active
GALK2	3	35.1	active
HM13	1	33.1	active
HM13	2	37	active
HM13	3	34.1	active
KDM2A	1	56	active
KDM2A	2	48.6	active
KDM2A	3	56.3	active
PARP11	1	40.1	active
PARP11	2	43.4	active
PARP11	3	33.5	active
MAP3K5	1	64.3	active
MAP3K5	2	69.3	active
MAP3K5	3	63	active
DHX58	1	49.9	active
DHX58	2	51.2	active
DHX58	3	35.2	active
PAXIP1	1	57.8	active
PAXIP1	2	59.6	active
PAXIP1	3	50.6	active
ORC1	1	40.8	active
ORC1	2	40.3	active
ORC1	3	49.4	active
SMYD2	1	28.3	active
SMYD2	2	20.9	active
SMYD2	3	37.2	active
